Laboratory results published in patent US20230374068A1, “COMPOSITIONS AND METHODS FOR TREATING A DISEASE” (RAMOT AT TEL AVIV UNIVERSITY LTD., priority 2021, published 2023).
At least one structure is not confirmed: it was looked up by name or label, or the drawing left a doubt.

System: Rab12 phosphorylation
Experiment: Rab12 phosphorylation in PC12 cells, Ion/TPA- or rotenone-treated (western blot)
Assay type: cell-based

Structure (SMILES): CN(C)C[C@@H]1CCn2cc(c3ccccc32)C2=C(C(=O)NC2=O)c2cn(c3ccccc23)CCO1 [LY333531]
- rotenone-induced phosphorylation of Rab12 (100 nM rotenone 48 h with 1 μM LY333531 or 10 μM GSK2578215A): significantly inhibited
- Ion/TPA-induced phosphorylation of Rab12 (1 μM LY333531 or 10 μM GSK2578215A 48 h, Ion/TPA 30 min): completely inhibited
